Among all 370,000 compounds or so, about 1,100 (0.3%) were called active. Not shown: some 1% with an inconclusive outcome. The call rests on the fitted dose curve; in most records, active means well fitted activation curve with a large enough effect; inconclusive means small, poorly fitted or top-dose-only effect; inactive means flat fitted curve, though single readings scatter. The entries are a selection whose mix differs from that of the whole data set. The source gives no active or inactive call for entries shown without one. Some compounds were tested as several samples or in several runs, with calls that do not always agree.
What follows are compounds tested against Relaxin receptor 1 (Homo sapiens) (UniProt Q9HBX9) (assay: qHTS Assay for Agonists of the Relaxin Receptor RXFP1). Conditions: HEK293T-RXFP1 cAMP TR-FRET, 30 min; activation: at 57.5 µM (top of the series), percent of porcine relaxin response, buffer zero.
Source text: NIH Chemical Genomics Center [NCGC] NIH Molecular Libraries Probe Production Centers Network [MLPCN] MLPCN Grant: R03 MH085705-01A1 Assay Submitter (PI): Alexander Agoulnik NCGC Assay Overview: The relaxin hormone is involved in the variety of biological functions in normal tissues and diseases. The role of relaxin is well-established in female reproduction and parturition, mammary gland and endometrial development, maintenance of myometrial quiescence during pregnancy. Relaxin signaling through its G protein-coupled receptor (GPCR) RXFP1 results in ECM remodeling through regulation of collagen deposition, cell invasiveness, proliferation and overall tissue homeostasis. […] Recombinant human relaxin (rhRlx) is currently being tested in clinical trials as a protective agent in congestive heart failure, in treating severe preeclampsia, and as an anti-fibrotic agent in systemic sclerosis. Upon relaxin binding RXFP1 activation leads to the activation of adenylate cyclase (AC) via Gs. cAMP will activate PKA, which phosphorylates many signaling proteins. Thus, detection of cAMP increase is an easy and reliable indication of relaxin receptor activation. To screen for agonists of the relaxin receptor, a HEK293T cell line stably transfected with RXFP1 was used. RXFP1 activation was assayed by changes in cAMP levels as detected with a time-resolved fluorescence energy transfer (TR-FRET) cAMP detection kit.
NCGC Assay Protocol Summary: This is a cell-based assay for cAMP second messenger response to screen for agonists of the RXFP1 receptor. The assay was conducted in the presence of a PDE4 inhibitor (Ro 20174). The cells were lysed and the cAMP levels were measured with a TR-FRET cAMP kit. Presence of cAMP in the cell lysate disrupts binding between the cryptate-labeled anti-cAMP and d2-labeled cAMP pair, leading to a decrease in the TR-FRET signal. Data were normalized to the controls for basal activity (buffer only) and 100% activity (29 nM porcine relaxin). The EC50 values were determined from concentration-response data modeled with the standard Hill equation 1536-well assay protocol for the HEK293 RXFP1 cAMP assay: (1) Add 3 ul HEK293 RXFP1 cell culture. 2000 cells/well in DMEM/F12, 10% FBS, 1x Pen/Strep (dispensed offline with MultiDrop Combi). (2) Incubate 16-24 hr at 37C, 5% CO2. (3) Add 1 ul 400uM Ro20174 in DPBS, 0.05% BSA, 0.005% Tween 20. (3) Add 23 nl compounds in DMSO solution. Final concentration was 0.5 - 58 uM. (4) Incubate 30 min at 37C, 5% CO2. (5) Add 1 ul cAMP-d2 in lysis buffer (HTRF cAMP HiRange kit, CisBio). (6) Add 1 ul anti-cAMP antibody-cryptate in lysis buffer (HTRF cAMP HiRange kit, CisBio). (7) Incubate 30 min at room temperature. (6) Detect the assay plate in a ViewLux plate reader (PerkinElmer) with Ex=320 nm, Em1=615 nm and Em2=665 nm. Keywords: relaxin, RXFP1, RXFP2, G-protein coupled receptor, cAMP, agonist, high throughput screening, MLSMR, MLSCN, NIH Roadmap, qHTS and NCGC
Further: nearly all actives have a fitted effect of over 60% in size.
On the % scale 0 is the no-effect control and ±100 the full control effect; potency means the concentration at half of the fitted maximal effect.

Chains of the proteins cited; added tags and fusions are not shown.
UniProt Q9HBX9, whole entry, looked up: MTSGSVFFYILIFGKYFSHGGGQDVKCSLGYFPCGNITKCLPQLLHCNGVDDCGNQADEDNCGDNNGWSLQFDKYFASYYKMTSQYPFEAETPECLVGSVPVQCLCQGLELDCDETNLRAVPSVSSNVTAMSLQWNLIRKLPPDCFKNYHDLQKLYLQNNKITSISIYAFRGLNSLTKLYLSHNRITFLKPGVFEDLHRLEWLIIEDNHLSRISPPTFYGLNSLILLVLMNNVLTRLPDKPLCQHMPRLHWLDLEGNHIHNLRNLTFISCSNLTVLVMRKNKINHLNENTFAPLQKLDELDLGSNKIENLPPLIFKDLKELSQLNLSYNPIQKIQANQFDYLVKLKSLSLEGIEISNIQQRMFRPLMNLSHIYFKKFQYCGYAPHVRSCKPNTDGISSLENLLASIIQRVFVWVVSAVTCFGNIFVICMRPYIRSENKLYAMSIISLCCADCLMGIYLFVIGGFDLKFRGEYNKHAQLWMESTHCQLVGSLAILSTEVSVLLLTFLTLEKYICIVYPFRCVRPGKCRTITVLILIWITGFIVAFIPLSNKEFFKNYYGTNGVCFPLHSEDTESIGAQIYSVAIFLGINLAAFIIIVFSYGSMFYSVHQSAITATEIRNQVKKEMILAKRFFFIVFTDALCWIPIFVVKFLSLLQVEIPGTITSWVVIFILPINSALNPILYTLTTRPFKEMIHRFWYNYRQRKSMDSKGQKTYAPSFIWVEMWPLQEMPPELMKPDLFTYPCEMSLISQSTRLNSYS

| Structure (SMILES) | Potency | activation |
| --- | --- | --- |
| CC(=O)c1cccc(NC(=O)c2nc3ccccc3n(C)c2=O)c1 | active: 15.8 µM |  |
| COC(=O)c1ccc(NC(=O)CC2Nc3cc(C)c(C)cc3NC2=O)cc1 (stereo not given) |  | -0.514% |
| CCOC(=O)c1sc(=NC(=O)c2cccs2)n(C)c1C | active: 28.2 µM |  |
| CN(Cc1ccco1)S(=O)(=O)c1nnc(NC(=O)c2ccccc2Cl)s1 |  | inactive: 6.44% |
| O=C1CN(c2nc3ccccc3n3cnnc23)CC(=O)N1CCc1ccccc1 |  | 5.82% |
| Cc1sc2ncn(CC(=O)Nc3ccc(C(C)C)cc3)c(=O)c2c1S(=O)(=O)N1CCN(c2ncccn2)CC1 | active: 25.1 µM |  |
| CC1CCCN(S(=O)(=O)c2ccc3c(c2)CCN3C(=O)CCC(=O)O)C1 (stereo not given) |  | 2.11% |
| O=[N+]([O-])c1cccc(COc2ncnc3cc([N+](=O)[O-])ccc23)c1 | active: 28.2 µM |  |
| COc1cc(-c2nnc(SCC(=O)N(C)C3CCS(=O)(=O)C3)o2)cc(OC)c1OC (stereo not given) |  | 7.51% |
| Cc1nn(CCC(=O)NC(C)C)c(=O)c2nn(-c3ccccc3)c(C)c12 |  | -4.5% |
| O=C(Cn1c(=O)n(CCCS(=O)(=O)C2CCCCC2)c(=O)c2ccccc21)Nc1ccccc1F |  | 91.8% |
| COc1ccccc1-c1cc2nc(C)c(CCC(=O)NCCc3ccc(SC)cc3)c(C)n2n1 |  | 46.6% |
| Cc1cccc(-n2ncc(C(=O)NCc3ccccn3)c2C2CCN(C(=O)OC(C)(C)C)CC2)c1 |  | 1.47% |
| CCn1c2ccccc2c2cc(NC(=O)COc3cccc(C)c3)ccc21 |  | 38.2% |
| Cc1ccc(Cl)cc1N1CCN(C(=O)C(C)n2ncn3cccc3c2=O)CC1 (stereo not given) |  | inactive: 4.61% |
| O=C(Nc1c(C(=O)N2CCN(c3ccc(F)cc3)CC2)oc2ccccc12)c1ccco1 |  | 183% |
| COc1cc(C2C(C(=O)c3cc4ccccc4o3)=C(O)C(=O)N2CCN2CCOCC2)ccc1OCCC(C)C (stereo not given) | active: 28.2 µM |  |
| Cc1cn(S(=O)(=O)c2ccc(Br)c3ccccc23)cn1 | active: 22.4 µM |  |
| COc1cccc(CNC(=O)c2ccc(CS(=O)Cc3ccc(C)cc3)o2)c1 (stereo not given) |  | 5.47% |
| O=C(CN1C(=O)c2cccc3cccc(c23)C1=O)NCCN1CCOCC1 | active: 14.1 µM |  |

| Structure (SMILES) | Potency | activation |
| --- | --- | --- |
| Cc1ccc(NC(=O)c2sc3nc(-c4cccs4)ccc3c2N)cc1F |  | 54.4% |
| Fc1ccc(-c2cn3cc(Cc4ccccc4)sc3n2)cc1 |  | 32.4% |
| Cc1nn(CC(=O)N2CCN(c3cccc(C(F)(F)F)c3)CC2)c(=O)c2cccn12 |  | inactive: 0.921% |
| Cc1cccc(N2CCN(C(=O)c3cc(S(=O)(=O)N4CCC(C)CC4)cn3C)CC2)c1C |  | 31.3% |
| CC1=C/C(=C(/c2cc(C)c(O)c(Br)c2)c2ccccc2S(=O)(=O)O)C=C(Br)C1=O |  | inactive: -37.2% |
| CCN(CCCNC(=O)c1cc2c(=O)n(C)c3ccccc3c2s1)Cc1ccccc1 |  | 70% |
| CCC(=O)N1CCc2cc(S(=O)(=O)NCCC(=O)Nc3ccc(OC)c(Cl)c3)ccc21 |  | 10.5% |
| CCN(CCCNC(=O)c1cc2c(=O)[nH]c3ccc(C)cc3c2s1)c1ccc(C)cc1 |  | 16.1% |
| CCOc1ccccc1NC(=O)Nc1ccc2nc(N3CCN(C)CC3)cc(C)c2c1 |  | 22.6% |
| COc1cc2c(cc1NC(=O)COc1ccc(Br)c(C)c1)oc1ccccc12 |  | 59.9% |
| CC(=O)Nc1c2c3c(cccc3n(C)c1=O)C(=O)c1ccccc1-2 |  | 94.1% |
| NC(=O)CC(NC(=O)Cc1ccc(Br)cc1)c1ccc(NCCc2ccccc2F)c([N+](=O)[O-])c1 (stereo not given) |  | inactive: -30% |
| Cn1c(=S)[nH]c2c(c1=O)C(C)(C)Cc1ccccc1-2 | active: 15.8 µM |  |
| CCCC(=O)Nc1ncnc2c1ncn2[C@@H]1O[C@@H]2COP(=O)(O)O[C@H]2[C@H]1OC(=O)CCC | active: 0.158 µM |  |
| CCCOc1cccc(C(=O)Nc2cc(-c3nc4ccccc4[nH]3)ccc2C)c1 |  | 69.8% |
| CCOC(=O)c1cc(S(=O)(=O)N2CCN(c3ccc(F)cc3)CC2)[nH]n1 |  | 4.86% |
| O=C(O)c1ccc(N=C2NC(=O)C(CO)(CO)S2)cc1 |  | 4.08% |
| Cn1cc(/C=C/c2cc[n+](C)cc2)c2cc(Cl)ccc21 |  | inactive: -45.3% |
| Cc1cc(O)c(CN2CCN(c3ccc(F)cc3)CC2)c2oc(=O)cc(C)c12 | active: 25.1 µM |  |
| CCCOc1ccc(C(=O)Nc2ccc3oc(-c4ccc(N(C)C)cc4)nc3c2)cc1 | active: 3.16 µM |  |

Structural class, the compounds so far containing a nitro group on carbon

| Structure (SMILES) | Potency | activation |
| --- | --- | --- |
| O=[N+]([O-])c1cccc(COc2ncnc3cc([N+](=O)[O-])ccc23)c1 | active: 28.2 µM |  |
| NC(=O)CC(NC(=O)Cc1ccc(Br)cc1)c1ccc(NCCc2ccccc2F)c([N+](=O)[O-])c1 (stereo not given) |  | inactive: -30% |

Source: PubChem BioAssay AID2676 (National Center for Advancing Translational Sciences (NCATS), 2010)
